The campaign covered roughly 340,000 compounds. About 170 (0.05%) were called active. The inconclusive results got no clear call from the source; some entries with a clear call stand among them for comparison. The call rests on the fitted dose curve; in most records, active means well fitted inhibition curve with a large enough effect in the signal ratio, with a control signal flat (not every such curve was filed as active); inconclusive means small, poorly fitted or top-dose-only effect, or effect the other way, or a change in a side signal; inactive means flat fitted curve, though single readings scatter; the % refers to the signal ratio. Potencies beside an inconclusive call are fits to weak or partial responses and may not hold up.
Test: qHTS Assay to Find Inhibitors of Chronic Active B-Cell Receptor Signaling;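 on activity change, negative = inhibition: plate controls were basal doxycycline-induced cells for no effect and cells given 10 µM MG132 for full effect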
Settings: ABC-DLBCL IkBa-CBG/CBR reporter, luminescence ratio (green luciferase fused to IkBa over red control in TMD8 lymphoma cells), 4 h; activity change, negative = inhibition: at 46.1 µM (top of the series)
In short: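 TMD8 human ABC-DLBCL cells with doxycycline-inducible IκBα–green luciferase fusion and unfused red luciferase, in 0.5% FBS medium; compounds up to 46 uM, 4 h at 37C. Green/red luminescence ratio, filter-overlap corrected, fitted to concentration-response curves.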
For `CCOc1ccccc1NC(=O)CNC(=O)Cc1ccccc1`, the Potency was inconclusive: 17.8 µM [falling, partial curve].
In the case of `Cc1onc(-c2ccccc2)c1CNC(=O)CN1C(=O)c2ccccc2C1=O`, the activity change, negative = inhibition is reported as inconclusive: 11%.
For `CC(C)c1cc(Br)ccc1OCCN1C(=O)NC(C)(C)C1=O`, the activity change, negative = inhibition was inconclusive: -18.4%.
For `O=C(COC(=O)Cn1cnc2ccccc2c1=O)Nc1ccccc1OC(F)F`, the activity change, negative = inhibition was inconclusive: 5.85%.
With `O=c1cc(-c2ccccc2)nc(SCc2ccccc2)[nH]1` the activity change, negative = inhibition was inconclusive: 9.12%.
In the case of `O=C1c2ccccc2C(=O)N1CCSc1nncs1`, the activity change, negative = inhibition is reported as inconclusive: 2.63%.
With `O=C1CC(c2ccco2)c2ccc3ccccc3c2N1` (configuration not stated) the “activity change, negative = inhibition” value was inactive: -0.559%.
With `Cc1cc(C)c(NC(=S)NC(CO)(CO)CO)c(C)c1` the activity change, negative = inhibition was inconclusive: -9.29%.
In the case of `CCCOC(=O)c1ccc(NC(=O)CCC(=O)OCC)cc1`, the Potency is reported as inconclusive: 17.8 µM [falling, partial curve].
For `COc1ccc(/C=N/N(C)C2=NCCN2)c(OC)c1OC`, the Potency was inconclusive: 11.2 µM [falling, single point].
With `COc1cccc(NC(=O)c2ccccc2F)c1` the Potency was inconclusive: 25.9 µM [falling, single point].
In the case of `O=C(O)[C@@H]1[C@@H]2C[C@@H]2CN1c1ncccc1[N+](=O)[O-]`, the “activity change, negative = inhibition” value is reported as inactive: 0.0122%.
In the case of `COc1ccc(-c2cn[nH]c2N)cc1OC`, the Potency is reported as inconclusive: 23.1 µM [falling, partial curve, poor fit].
With `COC(=O)c1cn(C(=O)c2ccc(OC)cc2)c2ccccc12` the Potency was inconclusive: 22.4 µM [falling, single point].
For `CC(O)c1cc2c(s1)c1cnn(Cc3ccccc3F)c(=O)c1n2C` (configuration not stated), the activity change, negative = inhibition was inconclusive: 7.46%.
With `COc1cccc(CN(CC(=O)NCc2ccccc2)S(=O)(=O)CCl)c1` the “activity change, negative = inhibition” value was inactive: -5.49%.
With `O=C(CN1CCN(S(=O)(=O)c2ccc(F)cc2)CC1)Nc1ccc(Cl)c(C(F)(F)F)c1` the activity change, negative = inhibition was inconclusive: 8.9%.
In the case of `CN(CC(=O)Nc1ccc(Cl)c(C(F)(F)F)c1)CC(=O)NC1CCCCC1`, the activity change, negative = inhibition is reported as inconclusive: -2.29%.
With `C=CCC[C@@H](Cc1ccc(F)cc1)C(=O)OC[C@H](Cc1c[nH]c2ccccc12)NC(=O)[C@H](CC=C)CC(=O)N(CCO)Cc1ccccc1` the activity change, negative = inhibition was inconclusive: -2.5%.
For `COc1ccc(C(c2c(C)[nH]n(C(N)=S)c2=O)C(C#N)C#N)cc1` (configuration not stated), the Potency was inconclusive: 25.9 µM [falling, partial curve, poor fit].
For `CNc1nc(-c2c[nH]c3ccccc23)cs1`, the Potency was inconclusive: 5.8 µM [falling, full curve].
With `CCOC(=O)/C(C#N)=C1\C(=O)N(Cc2ccccc2)c2ccccc21` the Potency was inconclusive: 22.4 µM [falling, partial curve, poor fit].

Source: PubChem BioAssay AID493014 (National Center for Advancing Translational Sciences (NCATS), 2011)
Potency means the concentration at half of the fitted maximal effect.
